# From PubChem BioAssay AID662 (National Center for Advancing Translational Sciences (NCATS), 2007)
# Some of the results follow. Shown are side measurements of this screen, not its main read-out; they come without a call. The list favours compounds with an active or inconclusive main result. The note in brackets gives the kind of curve behind each potency; many fits are weak.
# Assay: Cell signaling CRE-BLA (Fsk stim)
# Conditions: CHO CRE-bla reporter (cAMP response element driving beta-lactamase), forskolin EC10, beta-lactamase ratio; measured here: 460 nm blue channel
# Outline: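 Forskolin analogue NKH 477 at EC10 stimulated CRE-driven beta-lactamase in CHO cells alongside compound dilution series. Beta-lactamase was measured with CCF4, excitation 405 nm, emission ratio 460/530 nm.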
row,SMILES,AC50
1,C=CCN(CC=C)S(=O)(=O)c1ccc2nc(NC(=O)C(C)C)sc2c1,"10 µM [rising, partial curve]"
2,Cc1nc2ccccc2n2c(O)c(CC(=O)O)cc12,"20 µM [rising, single point]"
3,CCCCCCn1cnc2c(c1=O)c1nc3ccccc3nc1n2Cc1cccs1,"20 µM [rising, single point]"
4,COc1ccc(Oc2ncc3nc(C)c(=O)n(C[C@H]4CCCO4)c3n2)cc1,"12.6 µM [rising, partial curve]"
5,O=C(Nc1nc(-c2ccccc2)cs1)C1CCCCN1S(=O)(=O)c1ccccc1 (configuration not stated),"3.98 µM [falling, partial curve]"
6,O=C(NCC1CCCO1)C1CCCN(Cc2cnn(-c3ccccc3)c2-n2cccc2)C1 (configuration not stated),"10 µM [rising, partial curve]"
7,Cc1ccc(NC(=O)CSc2nnc(CCCCCNC(=O)OC(C)(C)C)o2)c(C)c1,"3.98 µM [falling, full curve, poor fit]"
8,O=C(Nc1ccc2c(c1)OCO2)c1cccc2c1C(=O)N(Cc1cccnc1)C2,"10 µM [rising, partial curve]"
9,CC(=O)NCCNc1nc(-c2c(C)noc2C)nc2ccccc12,"7.94 µM [rising, partial curve]"
10,CCOC(=O)c1sc(NC(C)=O)c(C(=O)OCC)c1C,"12.6 µM [rising, partial curve]"
11,COc1cccc(OC)c1C(=O)Nc1ccccc1C(=O)N1CCOCC1,"12.6 µM [rising, single point]"
12,CCOC(=O)c1[nH]c2ccc(OC)cc2c1NC(=O)CN1CCSCC1,"10 µM [rising, single point]"
13,Cc1ccc(-c2nc3ncccc3o2)cc1NC(=O)Cc1ccc(Cl)cc1,"0.00398 µM [falling, full curve, poor fit]"
14,CC(C)(C)N1C(=O)Cc2c1nc(N)c1c(N)nc(N3CCCCC3CO)c(C#N)c21 (configuration not stated),"2.51 µM [rising, full curve]"
15,OCCNc1cc(-n2nc(-c3ccccc3)cc2-c2ccccc2)ncn1,"1 µM [falling, partial curve]"
16,COc1ccc(C2/C(=C(/O)c3ccc(Cl)cc3)C(=O)C(=O)N2CCN2CCOCC2)c(OC)c1 (configuration not stated),"2.51 µM [rising, partial curve]"
17,Cc1cc(=O)[nH]c(SCc2cccc(Br)c2)n1,"0.00316 µM [falling, full curve, poor fit]"
18,CCOC(=O)c1ccc(Cn2cnc3ccccc3c2=O)cc1,"15.8 µM [rising, single point]"
19,CCOC(=O)c1ccc(S(=O)(=O)n2c(CN3CCCCC3)nc3ccccc32)cc1,"3.16 µM [rising, single point]"
20,Clc1ccc(CSc2nnc(-c3ccncc3)o2)c(Cl)c1,"12.6 µM [rising, single point]"
21,O=C(CN1C(=O)CCC1=O)Nc1ccc2c3c(cccc13)CC2,"5.01 µM [falling, single point]"
22,Cc1ccc2cc(C#N)c(NCCNC(=O)C3CCC3)nc2c1C,"12.6 µM [rising, partial curve]"
23,Cc1occc1C(=O)N1CCN(c2ncccn2)CC1,"0.2 µM [rising, partial curve]"

row,SMILES,AC50
1,COCCn1c(=O)c(-c2cn(C)c3ccccc23)nc2cnc(Oc3ccccc3)nc21,"2.51 µM [rising, full curve]"
2,COC(=O)N1[C@H](C)C=C[C@]1(Cc1ccccc1)C(=O)NCc1ccc(C)o1,"20 µM [falling, partial curve, poor fit]"
3,CCOc1ccc2nc(NC(=O)C3CCN(c4cnccn4)CC3)sc2c1,"10 µM [rising, partial curve]"
4,[O-][n+]1onc2c1CCc1c-2nn(-c2ccccc2Cl)[n+]1[O-],"12.6 µM [falling, partial curve]"
5,CCOc1ccc(N2C(=O)c3ccccc3C2O)cc1 (configuration not stated),"25.1 µM [falling, single point]"
6,NC(=O)CC12CC3CC(C1)CC(CC(N)=O)(C3)C2,"0.794 µM [falling, full curve, poor fit]"
7,COC(=O)c1c(NC(=O)C2CC2)sc2c1CCN(C(C)=O)C2,"10 µM [rising, partial curve]"
8,CCOC(=O)c1c(NC(=O)OC)sc(C(=O)N(C)C)c1C,"3.16 µM [rising, partial curve]"
9,CN(C1=NC(=O)C(CC(=O)Nc2ccc(Br)cc2)S1)c1ccc(O)cc1 (configuration not stated),"25.1 µM [rising, single point]"
10,CC1(C)C2CCC1(CS(=O)(=O)NCc1ccc(C(=O)O)cc1)C(=O)C2 (configuration not stated),"5.01 µM [falling, single point]"
11,CCOC(=O)N1CCN(C(=O)c2ccc3c(=O)n(CCC4=CCCCC4)c(=O)[nH]c3c2)CC1,"1 µM [rising, partial curve]"
12,COc1ccccc1N(CC(=O)Nc1ccccc1C)S(C)(=O)=O,"1.26 µM [falling, partial curve]"
13,CNc1nc(N2CCc3ccccc32)ncc1F,"25.1 µM [rising, single point]"
14,O=C(CN1C(=O)c2ccccc2S1(=O)=O)NCc1ccccn1,"12.6 µM [falling, single point]"
15,Clc1ccccc1-c1ccc2ncnc(NC3CCNCC3)c2c1,"7.94 µM [rising, partial curve]"
16,CCN=c1scc(-c2ccc3c(c2)NC(=O)CO3)n1N=C1CCCC1,"0.398 µM [falling, single point]"
17,Cc1ccc(Nc2cc(C)nc3nnnn23)cc1,"0.631 µM [falling, partial curve]"
18,Cc1ccc(C)c(-n2c(SCC(N)=O)nnc2-c2ccccn2)c1,"10 µM [rising, partial curve]"
19,CN(C)C(=O)c1ccc(-c2ccc3ncnc(N4CCNCC4)c3c2)cc1,"10 µM [rising, single point]"
20,CC1Cc2ccccc2N1S(=O)(=O)c1cccc(C(=O)OCC(=O)NC2CCS(=O)(=O)C2)c1 (configuration not stated),"25.1 µM [rising, single point]"
21,CCOC(=O)c1cccc(NC(=O)CCc2c(C)nc3ncnn3c2C)c1,"25.1 µM [rising, single point]"
22,COc1ccc(NC(=O)CSc2nc3ccccc3c(=O)n2CCNC(C)=O)c(OC)c1,"6.31 µM [rising, partial curve, poor fit]"
23,CCOC(=O)c1[nH]c(C)c(C(=O)Nc2ccccc2F)c1C,"12.6 µM [rising, partial curve]"

row,SMILES,AC50
1,COc1ccc(CCCc2nnc(SCC(=O)Nc3ncc(C)s3)o2)cc1,"10 µM [rising, partial curve]"
2,O=C(c1cccc(S(=O)(=O)N2CCCCC2)c1)N1CCCCC1,"0.00398 µM [falling, full curve, poor fit]"
3,O=c1c(-c2cccs2)nc2cnc(N3CCOCC3)nc2n1Cc1ccc(F)cc1,"0.631 µM [rising, full curve]"
4,O=C(COC(=O)C1=COCCO1)Nc1ccccc1Oc1ccccc1,"0.251 µM [falling, partial curve]"
5,Cc1nc(NC(=O)CSc2nc3cccnc3n2Cc2ccccc2)sc1C,"2.51 µM [rising, full curve]"
6,COc1ccc(S(=O)(=O)NC(CC(=O)N2CCc3ccccc32)c2ccco2)cc1 (configuration not stated),"5.01 µM [falling, single point]"
7,O=C(Cn1cnc2sc(-c3ccccc3)cc2c1=O)N1CCOCC1,"12.6 µM [rising, single point]"
8,Cc1cnc(CNc2ccnc(-c3ccccc3Cl)n2)cn1,"7.94 µM [rising, partial curve]"
9,COc1ccc(-c2cc(C(=O)NCC(C)C)no2)cc1,"0.00398 µM [falling, full curve, poor fit]"
10,CCOc1cc(C(=O)CSc2nnc(CNc3ccc(Cl)cc3)o2)ccc1NC(=O)CC,"25.1 µM [falling, single point]"
11,COCCSc1nc2c(c(=O)[nH]c(=O)n2C)n1Cc1cccc(C)c1,"15.8 µM [rising, partial curve]"
12,N=C(N)SCCc1ccccn1,"5.01 µM [rising, single point]"
13,c1cn(-c2ccnc(-c3ccc4c(c3)OCO4)n2)cn1,"10 µM [rising, partial curve]"
14,COc1ccc(NC(=O)CSc2nc3c(c(=O)n2-c2ccccc2)SCC3)c(OC)c1,"2.51 µM [rising, full curve]"
15,Cc1cccc(-n2nnc(C(=O)NCc3ccc4c(c3)OCO4)c2N)c1,"3.16 µM [rising, single point]"
16,CC1=C(C(=O)Nc2cccc(C)n2)C(c2ccc3c(c2)OCO3)C2=C(CC(c3ccco3)CC2=O)N1 (configuration not stated),"10 µM [rising, partial curve]"
17,CC1CCCCC1NS(=O)(=O)c1ccc(S(=O)(=O)N2CCCC2)cc1 (configuration not stated),"12.6 µM [rising, partial curve]"
18,COC(=O)c1[nH]c(C)c(/C(O)=C2\C(=O)C(=O)N(CCN(C)C)C2c2ccc(OC)cc2)c1C (configuration not stated),"25.1 µM [rising, single point]"
19,CCCCN(CC)CCNC(=O)Cn1cnc2sc(C)c(S(=O)(=O)N3CCOCC3)c2c1=O,"0.0501 µM [falling, full curve]"
20,COC(=O)c1c(NC(=O)c2ccc(C)o2)sc2c1CCCCC2,"7.94 µM [rising, partial curve]"
21,Cc1cc(C)n2nc(SCc3ncc(-c4ccccc4)o3)nc2n1,"3.98 µM [rising, partial curve]"

# A different layout for some results above:
row	SMILES	AC50
7	O=C(Cn1cnc2sc(-c3ccccc3)cc2c1=O)N1CCOCC1	12.6 µM [rising, single point]
8	Cc1cnc(CNc2ccnc(-c3ccccc3Cl)n2)cn1	7.94 µM [rising, partial curve]
9	COc1ccc(-c2cc(C(=O)NCC(C)C)no2)cc1	0.00398 µM [falling, full curve, poor fit]
10	CCOc1cc(C(=O)CSc2nnc(CNc3ccc(Cl)cc3)o2)ccc1NC(=O)CC	25.1 µM [falling, single point]
11	COCCSc1nc2c(c(=O)[nH]c(=O)n2C)n1Cc1cccc(C)c1	15.8 µM [rising, partial curve]
